Data reported in PMC12320228.
No constants are given. Whether binding was seen depends on the method and setting. Binding seen in cells or lysates may run through a third protein. Some results given as binding are weak or reduced against the parent protein; the word gives no strength.

Molecular target: T1, Recombinant undercarboxylated osteocalcin (ucOCN) (UniProt P86546)
T1 sequence: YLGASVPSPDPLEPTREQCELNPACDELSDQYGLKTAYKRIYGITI
Experiment: co-IP; mouse primary chondrocytes treated with 5 ng/mL recombinant ucOCN for 4 hours; lysed in IP-lysis buffer (20 mM Tris-HCl pH 7.4, 0.15 M NaCl, 1 mM EDTA, 1 mM EGTA, 1% Triton X-100); precipitated with anti-OCN antibody or IgG control overnight at 4°C, agarose A/G; western blotting

binding: binds
B1: G protein-coupled receptor class C group 6 member A (GPRC6A) (receptor, UniProt Q8K4Z6 21-928)
chain: CHTPDDFVAITSPGHIMIGGLFAIHEKMLSSDDHPRRPQIQKCAGFEISVFLQTLAMIHSIEMINNSTLLSGVKLGYEIYDTCTEVTAAMAATLRFLSKFNCSRETVVFQCDYSSYMPRVKAVIGAGYSETSIAVSRMLNLQLMPQVSYESTAEILSDKIRFPSFLRTVPSDFYQTKAMAHLIRQSGWNWIGAITTDDDYGRLALNTFAIQAAENNVCIAFKEVLPAFLSDNTIEVRINQTLEKIIAEAQVNVIVVFLRKFHVFNLFTKAIERKISKIWIASDNWSTATKIITIPNVKKLGKVVGFAFRRGNTSSFHSFLQTLHMYPNDNNKPLHEFAMLVSACKYIKDGDLSQCISNYSQATLTYDTTKTIENHLFKRNDFLWHYTEPGLIYSIQLAVFALGHAIRDLCQARDCKKPNAFQPWELLAVLKNVTFTDGRNSFHFDAHGDLNTGYDVVLWKETNGLMTVTKMAEYDLQRDVFITTNQETKHEFRKLKQILSKCSKECSPGQMKKATGSQHSCCYECVSCPENHYSNETDMDHCLLCNNETHWAPVRSTTCFEKEVEYLDWDDSLALLLIALSLLGIAFVLAIGIIFTRNLKTPVVKSSGGLVVCYVMLICHALNFASTGFFIGEPQDFACKTRQTLFGVSFTLCVSCILTKSLKILLAFSFDPKLTMFLKCLYRPVPIVLTCTGIQVVICTLWLVLAAPSVEENISLPRVIILECEEGSALAFGTMLGYITVLAFICFVFAFKGRKLPENYNEAKFLTFGMLIYFIAWITFIPVYTTTFGKYLPAVEIIVILISNYGILCCIFFPKCYIILCKQKTNTKSAFLQMVYNYSAHSVDSLALSHVSLDSTSYDTATTNQSPGNKMTACQNDNHLPAQVLPHTGTAKTIKASKTLRQKRSSSI
